PubChem BioAssay AID1259308 – NCATS – 2017
The deposit covers about 59,000 reagents; below is a part drawn at random. About 1,510 of them (2.6%) were called active. 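Calls use total luciferase alone and ignore viability, so some active siRNAs may act by altering cell number.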 Reagents against one gene are numbered here. Reagent sequences are not shown.

Test: 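Knock-downs that increase output of a recombinant reporter protein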 (primary screen)
Cell system: human HEK293 embryonic kidney cells stably expressing firefly luciferase (HEK-CMV-Luc2-Hygro)
Reagent: single siRNA against human genes, 0.8 pmol siRNA per well
Timing: 72 h
Read-out: 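Luciferase light (ONE-Glo) measured on one replicate plate set and viability (CellTiter-Glo) on the other, scaled to a negative control siRNA, with robust z-scores and luciferase per cell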
Direction: total luciferase, z-score and total luciferase, % of control: higher = more reporter protein produced; luciferase per cell, z-score: higher = more reporter output per viable cell; viable cells, % of control: higher = more viable cells
Call rule: 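An siRNA counts as active if its total luciferase robust z-score exceeds 3; genes with two or more such siRNAs out of three were retested with fresh siRNAs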
Calls: active = raised luciferase; inactive = no rise

no.	gene	reagent no.	total luciferase, z-score	total luciferase, % of control	luciferase per cell, z-score	viable cells, % of control	outcome
1	CCDC78	1	-1.09	60.1	-0.807	83.1	inactive
2	CCDC78	2	2.06	123	2.69	67.7	inactive
3	CCDC78	3	-0.263	76.7	-0.348	93.9	inactive
4	TSPEAR	1	1.85	119	1.21	96.2	inactive
5	TSPEAR	2	-0.257	76.8	0.171	82	inactive
6	TSPEAR	3	-0.205	77.8	-0.384	96.2	inactive
7	SHROOM2	1	0.0508	82.9	0.523	80.7	inactive
8	SHROOM2	2	-0.197	78	-0.413	97.1	inactive
9	SHROOM2	3	-0.509	71.8	-0.523	92	inactive
10	STIM2	1	-0.165	78.6	-0.659	104	inactive
11	STIM2	2	0.179	85.4	0.0102	95.2	inactive
12	STIM2	3	2.42	130	2.24	80.5	inactive
13	ENOX2	1	2	122	2.31	74.1	inactive
14	ENOX2	2	-0.409	73.7	-0.355	90.5	inactive
15	ENOX2	3	0.834	98.5	0.561	94.9	inactive
16	SNX2	1	0.765	97.1	0.258	101	inactive
17	SNX2	2	0.194	85.7	0.0904	93.6	inactive
18	SNX2	3	-1.74	47.3	-0.874	66.5	inactive
19	TEKT4	1	1.6	114	0.965	98.6	inactive
20	TEKT4	2	0.193	85.7	-0.172	100	inactive
21	TEKT4	3	1.43	110	0.324	113	inactive
22	ELOVL1	1	-0.839	65.2	-0.606	85.5	inactive
23	ELOVL1	2	1.69	116	0.906	102	inactive
24	ELOVL1	3	-0.0065	81.8	0.676	76.5	inactive
25	SMCO4	1	1.33	108	0.392	109	inactive
26	SMCO4	2	0.0128	82.1	-0.657	109	inactive
27	SMCO4	3	0.775	97.3	0.513	95	inactive
28	LOC653513	1	0.43	90.4	-0.24	108	inactive
29	LOC653513	2	-0.0255	81.4	0.105	88.4	inactive
30	LOC653513	3	0.288	87.6	-0.211	103	inactive
31	LMOD3	1	0.354	88.9	0.254	92.9	inactive
32	LMOD3	2	-1.09	60.1	-1.14	90.7	inactive
33	LMOD3	3	0.794	97.7	0.632	92.4	inactive
34	GOPC	1	0.464	91.1	0.0715	99.9	inactive
35	GOPC	2	-0.375	74.4	-0.319	90.4	inactive
36	GOPC	3	0.866	99.1	0.784	90.1	inactive
37	SLC35A2	1	1.12	104	0.618	98.8	inactive
38	SLC35A2	2	0.488	91.6	-0.439	115	inactive
39	SLC35A2	3	0.42	90.2	-0.295	109	inactive
40	ZNF524	1	-1.62	49.7	-1.88	91	inactive
41	ZNF524	2	0.813	98	0.4	98.6	inactive
42	ZNF524	3	1.76	117	1.09	97.9	inactive
43	LINC02667	1	-0.484	72.3	-0.0941	82.8	inactive
44	LINC02667	2	-1.77	46.7	-2.21	93.4	inactive
45	LINC02667	3	-2.11	39.9	-1.89	73.3	inactive
46	TRIM28	1	2.09	123	1.36	96.5	inactive
47	TRIM28	2	-0.418	73.6	-1.02	107	inactive
48	TRIM28	3	-0.344	75	-0.751	102	inactive
49	RPP38	1	0.777	97.3	1.36	76.1	inactive
50	RPP38	2	-1.32	55.6	-1.64	95.7	inactive
51	RPP38	3	0.758	97	0.931	84.8	inactive
52	ZNF174	1	1.14	105	0.848	93.5	inactive
53	ZNF174	2	0.229	86.4	-0.314	105	inactive
54	ZNF174	3	-0.17	78.5	-0.853	110	inactive
55	LSM14B	1	-0.736	67.3	-0.975	97.1	inactive
56	LSM14B	2	-0.532	71.3	-0.568	92.5	inactive
57	LSM14B	3	-2.01	41.8	-2.02	79.6	inactive

Reprinted from the entries so far, 4 entries:
no.	gene	reagent no.	total luciferase, z-score	total luciferase, % of control	luciferase per cell, z-score	viable cells, % of control	outcome
10	STIM2	1	-0.165	78.6	-0.659	104	inactive
11	STIM2	2	0.179	85.4	0.0102	95.2	inactive
12	STIM2	3	2.42	130	2.24	80.5	inactive
13	ENOX2	1	2	122	2.31	74.1	inactive
